Experimental data from the supplement of paper PMC10849652.
The other results are listed elsewhere or left out.

Sequences of proteins named here, by UniProt entry; tags and fusion partners are left off. A change or cut given only in a name is not applied to a line headed by its entry.
UniProt Q9H6Q4: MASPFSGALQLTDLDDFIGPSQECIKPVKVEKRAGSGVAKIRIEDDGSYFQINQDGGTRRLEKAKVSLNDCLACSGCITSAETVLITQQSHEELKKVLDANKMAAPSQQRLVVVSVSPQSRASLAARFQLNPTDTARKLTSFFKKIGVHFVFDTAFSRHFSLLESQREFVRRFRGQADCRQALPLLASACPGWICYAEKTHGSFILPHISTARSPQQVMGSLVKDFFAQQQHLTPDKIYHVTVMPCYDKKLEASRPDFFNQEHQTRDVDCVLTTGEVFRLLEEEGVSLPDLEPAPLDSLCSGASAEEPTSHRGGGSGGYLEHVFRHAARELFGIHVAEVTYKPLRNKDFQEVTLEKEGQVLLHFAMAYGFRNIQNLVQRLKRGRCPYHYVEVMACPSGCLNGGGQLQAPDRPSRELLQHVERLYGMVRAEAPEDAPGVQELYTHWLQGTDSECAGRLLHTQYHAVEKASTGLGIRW
UniProt P61024, whole entry, looked up: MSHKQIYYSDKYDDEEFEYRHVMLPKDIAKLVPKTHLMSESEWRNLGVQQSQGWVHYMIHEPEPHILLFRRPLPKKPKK
UniProt Q9H444: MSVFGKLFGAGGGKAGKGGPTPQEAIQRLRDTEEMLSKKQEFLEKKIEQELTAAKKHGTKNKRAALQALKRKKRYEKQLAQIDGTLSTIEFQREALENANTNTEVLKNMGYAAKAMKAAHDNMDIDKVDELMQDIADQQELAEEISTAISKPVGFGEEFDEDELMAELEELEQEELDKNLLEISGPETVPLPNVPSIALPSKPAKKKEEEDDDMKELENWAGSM
UniProt O43633: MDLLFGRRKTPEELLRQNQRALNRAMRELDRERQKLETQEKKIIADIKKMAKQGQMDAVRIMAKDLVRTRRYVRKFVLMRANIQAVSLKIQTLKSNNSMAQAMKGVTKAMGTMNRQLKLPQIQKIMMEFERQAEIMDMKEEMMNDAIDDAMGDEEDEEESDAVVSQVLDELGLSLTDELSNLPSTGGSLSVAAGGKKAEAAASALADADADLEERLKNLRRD
UniProt Q9NX63: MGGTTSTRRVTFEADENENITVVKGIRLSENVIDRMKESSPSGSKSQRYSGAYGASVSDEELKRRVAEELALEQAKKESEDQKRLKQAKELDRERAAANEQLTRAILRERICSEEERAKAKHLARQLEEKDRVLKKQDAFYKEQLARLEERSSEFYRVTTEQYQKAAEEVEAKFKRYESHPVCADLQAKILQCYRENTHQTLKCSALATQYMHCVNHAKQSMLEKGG
UniProt Q96FZ7: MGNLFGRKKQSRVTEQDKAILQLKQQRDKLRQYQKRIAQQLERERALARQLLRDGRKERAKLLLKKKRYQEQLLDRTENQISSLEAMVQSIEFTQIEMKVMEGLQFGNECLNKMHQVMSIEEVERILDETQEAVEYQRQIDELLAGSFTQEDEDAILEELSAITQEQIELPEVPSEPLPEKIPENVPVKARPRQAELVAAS
UniProt Q9Y6H1: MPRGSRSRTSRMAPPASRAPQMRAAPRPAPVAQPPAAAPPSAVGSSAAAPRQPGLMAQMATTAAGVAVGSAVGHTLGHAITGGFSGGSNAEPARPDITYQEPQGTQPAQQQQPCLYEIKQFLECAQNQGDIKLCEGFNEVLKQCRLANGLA
UniProt P62633: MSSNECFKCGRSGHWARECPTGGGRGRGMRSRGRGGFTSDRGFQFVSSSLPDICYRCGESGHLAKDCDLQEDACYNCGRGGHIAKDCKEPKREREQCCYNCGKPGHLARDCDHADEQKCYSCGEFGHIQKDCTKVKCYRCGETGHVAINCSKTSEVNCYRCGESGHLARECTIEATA
UniProt Q14839: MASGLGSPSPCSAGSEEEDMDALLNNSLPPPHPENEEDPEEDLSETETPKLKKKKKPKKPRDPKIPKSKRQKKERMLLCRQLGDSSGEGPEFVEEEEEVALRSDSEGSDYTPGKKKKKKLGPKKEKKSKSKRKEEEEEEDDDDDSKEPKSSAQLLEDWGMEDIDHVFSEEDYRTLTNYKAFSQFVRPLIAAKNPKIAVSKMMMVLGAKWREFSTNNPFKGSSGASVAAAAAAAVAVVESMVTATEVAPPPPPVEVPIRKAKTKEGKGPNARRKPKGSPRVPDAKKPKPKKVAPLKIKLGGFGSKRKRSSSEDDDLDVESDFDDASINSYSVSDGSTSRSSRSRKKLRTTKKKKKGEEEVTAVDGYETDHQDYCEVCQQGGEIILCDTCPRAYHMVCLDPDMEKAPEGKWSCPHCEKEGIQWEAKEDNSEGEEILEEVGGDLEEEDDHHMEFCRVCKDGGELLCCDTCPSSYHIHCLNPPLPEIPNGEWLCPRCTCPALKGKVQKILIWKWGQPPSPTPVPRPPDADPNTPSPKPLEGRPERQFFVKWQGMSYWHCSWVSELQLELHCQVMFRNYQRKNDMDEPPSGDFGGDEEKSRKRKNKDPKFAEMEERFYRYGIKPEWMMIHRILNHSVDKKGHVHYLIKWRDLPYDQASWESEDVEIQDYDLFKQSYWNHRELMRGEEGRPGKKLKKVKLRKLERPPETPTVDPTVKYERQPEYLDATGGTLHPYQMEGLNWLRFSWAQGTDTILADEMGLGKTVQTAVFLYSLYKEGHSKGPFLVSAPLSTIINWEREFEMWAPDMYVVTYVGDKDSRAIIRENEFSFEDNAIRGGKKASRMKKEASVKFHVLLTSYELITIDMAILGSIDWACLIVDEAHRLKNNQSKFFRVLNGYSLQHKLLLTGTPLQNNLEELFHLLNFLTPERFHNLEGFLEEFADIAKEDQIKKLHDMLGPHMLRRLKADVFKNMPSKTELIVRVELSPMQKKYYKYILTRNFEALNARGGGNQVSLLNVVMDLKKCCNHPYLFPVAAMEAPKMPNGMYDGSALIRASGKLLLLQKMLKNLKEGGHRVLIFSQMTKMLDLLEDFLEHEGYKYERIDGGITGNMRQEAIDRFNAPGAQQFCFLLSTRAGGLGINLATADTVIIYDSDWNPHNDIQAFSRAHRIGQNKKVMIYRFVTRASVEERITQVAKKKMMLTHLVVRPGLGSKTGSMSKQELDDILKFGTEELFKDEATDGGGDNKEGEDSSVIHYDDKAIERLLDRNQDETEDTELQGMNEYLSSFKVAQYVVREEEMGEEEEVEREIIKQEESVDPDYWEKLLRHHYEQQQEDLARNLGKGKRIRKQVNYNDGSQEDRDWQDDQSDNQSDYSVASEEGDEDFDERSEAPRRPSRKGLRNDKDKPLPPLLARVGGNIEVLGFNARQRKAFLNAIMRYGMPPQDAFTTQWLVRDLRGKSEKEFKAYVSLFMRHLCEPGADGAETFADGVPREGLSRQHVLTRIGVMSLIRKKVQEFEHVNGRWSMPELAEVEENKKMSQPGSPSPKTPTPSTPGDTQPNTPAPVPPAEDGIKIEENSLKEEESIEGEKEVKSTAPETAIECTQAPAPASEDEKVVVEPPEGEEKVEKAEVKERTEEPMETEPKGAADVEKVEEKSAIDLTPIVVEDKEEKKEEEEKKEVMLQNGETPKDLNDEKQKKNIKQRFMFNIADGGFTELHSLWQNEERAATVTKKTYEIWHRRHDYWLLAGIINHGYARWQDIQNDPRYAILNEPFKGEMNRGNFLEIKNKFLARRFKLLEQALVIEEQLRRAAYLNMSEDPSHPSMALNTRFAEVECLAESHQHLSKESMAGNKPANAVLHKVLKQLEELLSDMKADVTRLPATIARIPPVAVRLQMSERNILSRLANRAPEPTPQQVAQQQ
UniProt Q9NRP2: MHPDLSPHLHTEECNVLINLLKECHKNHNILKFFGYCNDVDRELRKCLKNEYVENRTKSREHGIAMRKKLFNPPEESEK
UniProt O14646: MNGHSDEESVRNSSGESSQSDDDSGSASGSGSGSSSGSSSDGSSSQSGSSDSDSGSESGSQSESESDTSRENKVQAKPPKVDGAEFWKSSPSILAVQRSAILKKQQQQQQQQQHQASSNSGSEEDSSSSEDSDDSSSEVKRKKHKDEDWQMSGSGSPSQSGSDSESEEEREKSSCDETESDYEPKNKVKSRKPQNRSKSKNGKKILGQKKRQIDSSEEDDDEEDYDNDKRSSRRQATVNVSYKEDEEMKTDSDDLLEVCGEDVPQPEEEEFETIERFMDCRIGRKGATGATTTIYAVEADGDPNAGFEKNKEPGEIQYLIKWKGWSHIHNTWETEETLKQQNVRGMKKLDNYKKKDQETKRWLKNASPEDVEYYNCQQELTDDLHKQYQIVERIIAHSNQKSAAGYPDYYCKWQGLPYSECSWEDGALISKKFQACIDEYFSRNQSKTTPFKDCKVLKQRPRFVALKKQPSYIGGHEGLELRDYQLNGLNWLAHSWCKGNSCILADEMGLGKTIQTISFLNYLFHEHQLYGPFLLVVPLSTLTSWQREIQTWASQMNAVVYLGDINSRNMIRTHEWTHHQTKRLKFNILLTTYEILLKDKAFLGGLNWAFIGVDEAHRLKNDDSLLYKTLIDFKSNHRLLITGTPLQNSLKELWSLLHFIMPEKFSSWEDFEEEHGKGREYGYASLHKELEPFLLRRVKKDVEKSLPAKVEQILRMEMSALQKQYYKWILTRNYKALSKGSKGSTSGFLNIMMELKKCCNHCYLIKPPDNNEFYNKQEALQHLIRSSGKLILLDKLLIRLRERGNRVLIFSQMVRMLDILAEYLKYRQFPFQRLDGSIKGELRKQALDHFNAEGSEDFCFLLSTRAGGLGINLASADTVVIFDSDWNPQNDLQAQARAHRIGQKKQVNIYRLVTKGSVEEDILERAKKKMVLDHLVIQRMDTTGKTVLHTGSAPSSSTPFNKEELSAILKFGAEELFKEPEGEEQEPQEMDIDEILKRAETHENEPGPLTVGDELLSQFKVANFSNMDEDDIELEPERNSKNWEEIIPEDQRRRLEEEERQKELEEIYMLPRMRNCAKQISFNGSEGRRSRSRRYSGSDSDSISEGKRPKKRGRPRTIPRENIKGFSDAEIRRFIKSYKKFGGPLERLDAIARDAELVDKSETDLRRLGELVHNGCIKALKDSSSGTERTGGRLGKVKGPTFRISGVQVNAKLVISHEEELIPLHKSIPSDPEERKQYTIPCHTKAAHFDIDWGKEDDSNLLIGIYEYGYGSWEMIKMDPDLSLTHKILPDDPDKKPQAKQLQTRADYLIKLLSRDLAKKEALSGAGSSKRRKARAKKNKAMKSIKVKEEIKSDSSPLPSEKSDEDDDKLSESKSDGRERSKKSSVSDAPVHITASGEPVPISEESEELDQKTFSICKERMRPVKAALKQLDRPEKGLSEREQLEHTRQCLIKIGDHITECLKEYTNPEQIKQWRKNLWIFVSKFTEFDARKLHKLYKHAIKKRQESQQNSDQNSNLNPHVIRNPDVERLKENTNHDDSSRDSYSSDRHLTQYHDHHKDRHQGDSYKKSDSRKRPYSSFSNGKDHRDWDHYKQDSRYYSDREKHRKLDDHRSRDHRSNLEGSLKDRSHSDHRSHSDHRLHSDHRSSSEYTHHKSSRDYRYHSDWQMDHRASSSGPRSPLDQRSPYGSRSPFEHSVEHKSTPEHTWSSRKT
UniProt P26374: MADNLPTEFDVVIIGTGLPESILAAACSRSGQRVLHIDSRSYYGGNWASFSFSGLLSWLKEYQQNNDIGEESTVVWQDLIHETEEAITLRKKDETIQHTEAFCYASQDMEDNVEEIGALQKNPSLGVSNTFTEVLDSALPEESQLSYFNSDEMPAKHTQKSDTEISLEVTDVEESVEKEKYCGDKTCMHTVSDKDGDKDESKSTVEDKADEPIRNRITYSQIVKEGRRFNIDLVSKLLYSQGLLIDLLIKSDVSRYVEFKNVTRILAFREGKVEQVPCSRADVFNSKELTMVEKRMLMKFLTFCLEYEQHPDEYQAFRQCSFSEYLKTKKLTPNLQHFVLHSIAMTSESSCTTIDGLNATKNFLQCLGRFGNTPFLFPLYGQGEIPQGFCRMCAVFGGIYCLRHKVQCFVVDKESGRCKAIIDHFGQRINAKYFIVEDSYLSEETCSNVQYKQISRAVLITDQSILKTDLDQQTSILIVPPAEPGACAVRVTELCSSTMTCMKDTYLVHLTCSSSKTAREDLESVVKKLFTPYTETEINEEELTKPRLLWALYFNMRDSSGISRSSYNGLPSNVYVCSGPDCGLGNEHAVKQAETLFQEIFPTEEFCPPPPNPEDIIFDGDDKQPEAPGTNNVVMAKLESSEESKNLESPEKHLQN
UniProt O14757: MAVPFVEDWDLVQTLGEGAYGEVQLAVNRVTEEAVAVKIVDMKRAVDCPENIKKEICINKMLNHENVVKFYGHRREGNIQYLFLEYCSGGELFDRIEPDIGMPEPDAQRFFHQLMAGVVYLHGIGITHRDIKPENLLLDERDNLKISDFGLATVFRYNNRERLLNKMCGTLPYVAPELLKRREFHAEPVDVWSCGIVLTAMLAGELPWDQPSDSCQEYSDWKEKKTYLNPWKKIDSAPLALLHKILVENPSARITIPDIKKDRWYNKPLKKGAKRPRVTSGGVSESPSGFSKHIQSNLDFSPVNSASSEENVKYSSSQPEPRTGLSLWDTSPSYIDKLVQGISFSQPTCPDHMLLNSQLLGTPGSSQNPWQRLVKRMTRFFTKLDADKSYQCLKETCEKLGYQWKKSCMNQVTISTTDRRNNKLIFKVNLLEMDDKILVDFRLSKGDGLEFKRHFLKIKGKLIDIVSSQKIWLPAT

Legend:
Assay in all cases: log2 fold change, soluble protein after heating vs DMSO (PISA); higher = thermal stabilisation; K562 lysate, 10 uM; active = over 0.2 and 3.5 SD of the protein, either way, in both replicates (recomputed)
[1] = compound: C#Cc1cccc(Nc2ncnc3cc(OCCOC)c(OCCOC)cc23)c1 [erlotinib]
Method in brief: (§1)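 K562 pellets were dounce-homogenised in PBS pH 7.4 with 1 mM MgCl2, and the crude extract at 1 mg/mL protein was treated with 10 μM compound for 30 min. Aliquots were heated for 3 min across 48°C-58°C, pooled, and brought to 0.5% NP-40 at 4°C; soluble protein was the supernatant after 21,000xg for 90 min. Soluble protein was quantified by TMTpro 16plex LC-MS/MS with channel sums equalised, and reported as log2 fold change in thermal stability against DMSO controls, with values from duplicates.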

[2] = compound: C/C(=N\NC(=O)C1=CC(=CC=C1)S(=O)(=O)N2CCOCC2)/C3=C(C=CC(=C3)Cl)O
Method in brief: as §1

[3] = compound: C1=CC(=CC=C1C2=NC3=C(N2)C=C(C=C3)C(=O)N)OC4=CC=C(C=C4)Cl
Method in brief: as §1

[4] = compound: C1=CC2=C(C=CC(=C2)/C=C\3/C(=O)NC(=NCC4=CC=CS4)S3)N=C1
Method in brief: as §1

[5] = compound: C1=CC2=NC=CN=C2C=C1/C=C/3\C(=O)NC(=O)S3
Method in brief: as §1

[6] = compound: C1=CC=C(C=C1)C2=NC(=C(N2)C3=CC=NC=C3)C4=CC(=C(C=C4)Cl)O
Method in brief: as §1

[7] = compound: C1=CC=C2C(=C1)C3=NNC4=CC=CC(=C43)C2=O
Method in brief: as §1

[8] = compound: C1CCN(C1)C(=O)NC2=CC=CC(=C2)NC3=NC=C(C(=N3)NCCC4=CN=CN4)Br
Method in brief: as §1

[9] = compound: C1CN(CCC1(CC2=CC=C(C=C2)Cl)N)C3=NC=NC4=C3C=CN4
Method in brief: as §1

[10] = compound: C1COCCN1CCN2C3=CC=CC=C3N=C2NC(=O)C4=CC(=CC=C4)[N+](=O)[O-] [IRAK-1-4 Inhibitor I]
Method in brief: as §1

[11] = compound: C=CC(=O)N1CCC[C@@H](n2nc(-c3ccc(Oc4ccccc4)cc3)c3c(N)ncnc32)C1 [ibrutinib]
Method in brief: as §1

[12] = compound: CC(=O)c1cnc2ccc(-c3cc(Cl)c(O)c(Cl)c3)nc2c1N[C@H]1CC[C@H](CN(C)C)CC1
Method in brief: as §1

[13] = compound: CC(C)(C)Cn1c(N)nc2ccc(-c3[nH]c(C(C)(C)C)nc3-c3ccc(F)cc3)nc21 [ralimetinib]
Method in brief: as §1

[14] = compound: CC(C)(O)CC(=O)NCCn1ccc2ncnc(Nc3ccc(Oc4cccc(C(F)(F)F)c4)c(Cl)c3)c21
Method in brief: as §1

[15] = compound: CC(C)C1=C2N=C(C=C(N2N=C1)NCC3=CC=CC=C3)NCCCCCCN
Method in brief: as §1

[16] = compound: CC1=C(C(CC(=O)N1)C2=CC=C(C=C2)C(F)(F)F)C(=O)NC3=C(C=C4C(=C3)C=NN4)F
Method in brief: as §1

[17] = compound: CC1=C(C2=C(C=C1)C(=O)C3=CC=CC=C3N2CCCN)C
Method in brief: as §1

[18] = compound: CC1=C(C=C(C=C1)NC(=O)C2=CC(=CC=C2)C(C)(C)C#N)NC3=CC4=C(C=C3)N=CN(C4=O)C
Method in brief: as §1

[19] = compound: CC1=C(C=C(C=C1)NC(=O)C2=CC(=CC=C2)N(C)C)NC(=O)C3=CC=C(C=C3)O
Method in brief: as §1

[20] = compound: CC1=CC=C(C=C1)SC2=C3C=C(SC3=CN=C2)C(=O)N
Method in brief: as §1

Measured: log2 fold change

CIP2A (UniProt Q8TCG1)
inactive: [1] 0.057 | [2] 0.18 | [3] -0.086 | [4] 0.034 | [5] -0.019 | [6] 0.019 | [7] -0.11 | [8] -0.002 | [9] 0.02 | [10] 0.007 | [11] 0.022 | [12] 0.001 | [13] 0.052 | [14] -0.046 | [15] -0.03 | [16] 0.009 | [17] 0.003 | [18] 0 | [19] 0.059 | [20] -0.033

CIAO3 (UniProt Q9H6Q4)
inactive: [1] 0.002 | [2] 0.01 | [3] 0.027 | [4] -0.013 | [5] -0.017 | [6] 0.002 | [7] -0.033 | [8] 0.023 | [9] 0.016 | [10] 0.002 | [11] 0.07 | [12] 0.006 | [13] 0.024 | [14] -0.018 | [15] -0.037 | [16] -0.022 | [17] -0.021 | [18] 0.051 | [19] -0.023 | [20] -0.006

CKM (UniProt P06732)
inactive: [1] 0.034 | [2] -0.167 | [3] 0.003 | [4] 0.023 | [5] 0.058 | [6] -0.024 | [7] 0 | [8] -0.017 | [9] 0.038 | [10] 0.044 | [11] -0.002 | [12] 0.056 | [13] 0.046 | [14] -0.076 | [15] 0.002 | [16] -0.001 | [17] -0.029 | [18] 0.044 | [19] 0.005 | [20] -0.02

CKS1B (UniProt P61024)
inactive: [1] -0.058 | [2] -0.097 | [3] -0.037 | [4] 0.042 | [5] 0.008 | [6] 0.121 | [7] 0.092 | [8] 0.038 | [9] -0.012 | [10] -0.018 | [11] 0.049 | [12] 0.01 | [13] -0.161 | [14] -0.034 | [15] 0.011 | [16] 0.055 | [17] 0 | [18] -0.059 | [19] 0.003 | [20] -0.012

CHMP4B (UniProt Q9H444)
inactive: [1] -0.04 | [2] -0.036 | [3] -0.022 | [4] -0.021 | [5] -0.055 | [6] 0.039 | [7] -0.011 | [8] 0.03 | [9] -0.01 | [10] -0.03 | [11] -0.004 | [12] -0.015 | [13] -0.001 | [14] 0.051 | [15] -0.041 | [16] -0.01 | [17] 0.009 | [18] -0.029 | [19] -0.008 | [20] -0.013

CHMP2A (UniProt O43633)
inactive: [1] -0.029 | [2] -0.322 | [3] 0.006 | [4] -0.021 | [5] -0.005 | [6] 0 | [7] 0.034 | [8] -0.022 | [9] -0.031 | [10] -0.044 | [11] 0.017 | [12] 0.057 | [13] 0.021 | [14] 0.001 | [15] 0.014 | [16] -0.009 | [17] 0.034 | [18] 0.019 | [19] -0.034 | [20] 0.001

CHCHD3 (UniProt Q9NX63)
inactive: [1] 0.011 | [2] 0.021 | [3] -0.091 | [4] -0.01 | [5] -0.008 | [6] -0.017 | [7] -0.06 | [8] 0.007 | [9] -0.032 | [10] 0.026 | [11] 0.003 | [12] 0.006 | [13] -0.01 | [14] -0.035 | [15] -0.009 | [16] -0.001 | [17] 0.044 | [18] -0.005 | [19] -0.014 | [20] 0.009

CHMP6 (UniProt Q96FZ7)
inactive: [1] -0.049 | [2] -0.001 | [3] -0.047 | [4] -0.021 | [5] 0.059 | [6] 0 | [7] 0.068 | [8] -0.038 | [9] -0.003 | [10] -0.029 | [11] 0.027 | [12] 0.018 | [13] -0.045 | [14] -0.02 | [15] 0.003 | [16] 0.069 | [17] -0.015 | [18] 0.111 | [19] -0.052 | [20] -0.03

CHCHD2 (UniProt Q9Y6H1)
inactive: [1] -0.068 | [2] -0.03 | [3] -0.086 | [4] 0.033 | [5] -0.024 | [6] 0.027 | [7] 0.092 | [8] 0.009 | [9] 0.057 | [10] -0.005 | [11] -0.122 | [12] -0.005 | [13] -0.068 | [14] 0.035 | [15] 0.02 | [16] 0.112 | [17] 0.023 | [18] -0.172 | [19] -0.046 | [20] 0.069

CNBP isoform 4 (UniProt P62633)
inactive: [1] 0.045 | [2] -0.058 | [3] 0.028 | [4] 0.032 | [5] 0.001 | [6] -0.167 | [7] 0.093 | [8] 0.094 | [9] 0.037 | [10] -0.074 | [11] -0.008 | [12] 0.034 | [13] 0.027 | [14] -0.156 | [15] -0.205 | [16] -0.121 | [17] 0.057 | [18] 0.263 | [19] -0.025 | [20] -0.003

CKB (UniProt P12277)
inactive: [1] -0.008 | [2] 0.006 | [3] -0.043 | [4] -0.019 | [5] 0.024 | [6] -0.017 | [7] -0.029 | [8] -0.016 | [9] -0.025 | [10] -0.013 | [11] 0.01 | [12] 0.029 | [13] 0.033 | [14] 0.014 | [15] 0.005 | [16] -0.029 | [17] 0.005 | [18] -0.032 | [19] 0.024 | [20] 0.016

CHD4 isoform 2 (UniProt Q14839)
inactive: [1] -0.02 | [2] 0.009 | [3] 0.007 | [4] 0.004 | [5] -0.016 | [6] -0.004 | [7] -0.013 | [8] -0.013 | [9] 0.031 | [10] -0.015 | [11] -0.003 | [12] -0.008 | [13] 0.026 | [14] 0.011 | [15] 0.025 | [16] 0.001 | [17] -0.037 | [18] 0.004 | [19] 0.006 | [20] 0.022

CMC2 (UniProt Q9NRP2)
inactive: [1] -0.09 | [2] 0.031 | [3] 0.017 | [4] 0.025 | [5] 0.053 | [6] -0.001 | [7] -0.03 | [8] 0.054 | [9] 0.026 | [10] -0.094 | [11] 0.11 | [12] 0.016 | [13] 0.105 | [14] 0.12 | [15] -0.031 | [16] 0.031 | [17] -0.029 | [18] -0.094 | [19] -0.011 | [20] -0.029

CHD1 (UniProt O14646)
inactive: [1] 0.126 | [2] 0.044 | [3] 0.006 | [4] 0.005 | [5] 0.042 | [6] -0.117 | [7] 0.019 | [8] -0.02 | [9] -0.028 | [10] 0.032 | [11] -0.012 | [12] -0.01 | [13] 0.034 | [14] -0.063 | [15] 0.006 | [16] 0.091 | [17] 0.018 | [18] -0.052 | [19] 0.095 | [20] 0.005

CHML (UniProt P26374)
inactive: [1] -0.03 | [2] -0.031 | [3] 0.028 | [4] -0.026 | [5] -0.013 | [6] -0.021 | [7] -0.004 | [8] -0.033 | [9] -0.001 | [10] -0.012 | [11] -0.029 | [12] -0.017 | [13] -0.008 | [14] -0.004 | [15] -0.009 | [16] -0.012 | [17] 0 | [18] -0.003 | [19] -0.017 | [20] -0.006

Two entries drawn at random from those above:
CNBP isoform 4 (UniProt P62633)
inactive: [1] 0.045 | [2] -0.058 | [3] 0.028 | [4] 0.032 | [5] 0.001 | [6] -0.167 | [7] 0.093 | [8] 0.094 | [9] 0.037 | [10] -0.074 | [11] -0.008 | [12] 0.034 | [13] 0.027 | [14] -0.156 | [15] -0.205 | [16] -0.121 | [17] 0.057 | [18] 0.263 | [19] -0.025 | [20] -0.003

CKM (UniProt P06732)
inactive: [1] 0.034 | [2] -0.167 | [3] 0.003 | [4] 0.023 | [5] 0.058 | [6] -0.024 | [7] 0 | [8] -0.017 | [9] 0.038 | [10] 0.044 | [11] -0.002 | [12] 0.056 | [13] 0.046 | [14] -0.076 | [15] 0.002 | [16] -0.001 | [17] -0.029 | [18] 0.044 | [19] 0.005 | [20] -0.02

(listing goes on)

CHEK1 (UniProt O14757)
active: [4] 0.27
inactive: [1] -0.048 | [2] -0.057 | [3] 0 | [5] 0.008 | [6] 0.023 | [7] 0.06 | [8] -0.108 | [9] 0.02 | [10] -0.011 | [11] 0.019 | [12] 0.104 | [13] 0.032 | [14] -0.004 | [15] -0.003 | [16] 0.004 | [17] 0.011 | [18] 0.026 | [19] -0.005 | [20] -0.024
